In paper PMC6026185 (Scientific Reports, 2018):

Assays:
[1] = system: hNKCC2 isoform F; settings: Xenopus oocytes; ref Gillen et al.[55]; Carota et al.[56]; read-out: IC50 (µM) NKCC2 (hF); cited from earlier work
[2] = target: T1, hNKCC1B (Homo sapiens, UniProt P55011); assay: 86Rb+ uptake in hNKCC1B-expressing Xenopus laevis oocytes; type: cell-based; settings: 5 min, corrected for uninjected oocytes, median and range of 3–7 experiments
T1 construct: expressed in transfected cells; host or cells: Xenopus laevis oocytes injected with cRNA (pXOOM vector)
T1 sequence (P55011 1-1196 isoform P55011-3): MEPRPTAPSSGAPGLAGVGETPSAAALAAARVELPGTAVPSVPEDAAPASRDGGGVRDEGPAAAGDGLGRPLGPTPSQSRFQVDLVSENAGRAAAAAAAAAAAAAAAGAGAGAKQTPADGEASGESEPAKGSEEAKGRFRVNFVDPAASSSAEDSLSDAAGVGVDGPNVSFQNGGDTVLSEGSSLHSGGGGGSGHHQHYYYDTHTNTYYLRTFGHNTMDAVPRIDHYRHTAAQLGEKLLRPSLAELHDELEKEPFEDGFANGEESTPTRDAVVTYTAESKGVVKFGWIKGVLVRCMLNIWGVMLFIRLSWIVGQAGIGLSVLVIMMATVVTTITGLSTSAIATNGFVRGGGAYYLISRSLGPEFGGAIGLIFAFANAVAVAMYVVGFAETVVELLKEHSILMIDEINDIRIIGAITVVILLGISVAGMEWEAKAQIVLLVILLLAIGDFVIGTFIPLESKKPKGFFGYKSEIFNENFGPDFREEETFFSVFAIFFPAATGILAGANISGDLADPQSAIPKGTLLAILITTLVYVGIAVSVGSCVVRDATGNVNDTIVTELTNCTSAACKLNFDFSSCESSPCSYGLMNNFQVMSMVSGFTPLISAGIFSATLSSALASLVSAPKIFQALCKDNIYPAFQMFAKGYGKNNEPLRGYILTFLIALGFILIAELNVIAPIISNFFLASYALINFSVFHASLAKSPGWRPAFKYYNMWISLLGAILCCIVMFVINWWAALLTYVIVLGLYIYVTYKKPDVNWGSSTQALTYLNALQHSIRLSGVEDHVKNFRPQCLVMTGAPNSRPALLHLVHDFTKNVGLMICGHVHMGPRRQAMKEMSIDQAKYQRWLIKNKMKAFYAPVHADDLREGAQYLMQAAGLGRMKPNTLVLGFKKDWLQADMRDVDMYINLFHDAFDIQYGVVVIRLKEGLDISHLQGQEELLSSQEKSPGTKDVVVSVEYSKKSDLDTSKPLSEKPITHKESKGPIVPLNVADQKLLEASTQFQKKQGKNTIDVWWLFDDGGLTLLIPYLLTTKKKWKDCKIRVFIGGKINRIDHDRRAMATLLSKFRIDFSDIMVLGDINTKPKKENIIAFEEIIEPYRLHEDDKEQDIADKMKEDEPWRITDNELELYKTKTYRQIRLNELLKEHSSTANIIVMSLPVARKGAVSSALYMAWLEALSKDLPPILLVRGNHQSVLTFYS
Experimental: Human NKCC1A (NM_001046, obtained from Prof. […] To obtain the cDNA encoding NKCC1B, two rounds of PCR (each deleting 24 base pairs from the sequence) was carried out with the following primer sets: […] The entire sequence of the final construct was verified against hNKCC1B (NM_001256461). […] To measure K^+ influx, oocytes were exposed to an isosmotic test solution in which KCl (5 mM) replaced choline chloride, and 2 μCi/mL ^86Rb^+ (NEZ072, PerkinElmer, Rodgau, Germany) were included as a tracer for K^+. Osmolarities of the test media were verified by using an osmometer (Type 15, Löser; Berlin, Germany). […] Median rather than mean values were used because oocyte data on ^86Rb^+ uptake measurements were not normally distributed. […] Significance of differences in transport activity of hNKCC1A or hNKCC1B expressing oocytes vs. uninjected oocytes were analyzed by the Kruskal-Wallis test followed by Dunn's multiple comparisons test. […] A P < 0.05 was considered significant.

[3] = target: T2, hNKCC1A (Homo sapiens, UniProt P55011); assay: 86Rb+ uptake in hNKCC1A-expressing Xenopus laevis oocytes; type: cell-based
T2 construct: Full-length NKCC1 (NKCC1A) comprises ~1200 amino acids; expressed in transfected cells; host or cells: Xenopus laevis oocytes injected with cRNA (pXOOM vector)
T2 sequence (P55011 1-1212): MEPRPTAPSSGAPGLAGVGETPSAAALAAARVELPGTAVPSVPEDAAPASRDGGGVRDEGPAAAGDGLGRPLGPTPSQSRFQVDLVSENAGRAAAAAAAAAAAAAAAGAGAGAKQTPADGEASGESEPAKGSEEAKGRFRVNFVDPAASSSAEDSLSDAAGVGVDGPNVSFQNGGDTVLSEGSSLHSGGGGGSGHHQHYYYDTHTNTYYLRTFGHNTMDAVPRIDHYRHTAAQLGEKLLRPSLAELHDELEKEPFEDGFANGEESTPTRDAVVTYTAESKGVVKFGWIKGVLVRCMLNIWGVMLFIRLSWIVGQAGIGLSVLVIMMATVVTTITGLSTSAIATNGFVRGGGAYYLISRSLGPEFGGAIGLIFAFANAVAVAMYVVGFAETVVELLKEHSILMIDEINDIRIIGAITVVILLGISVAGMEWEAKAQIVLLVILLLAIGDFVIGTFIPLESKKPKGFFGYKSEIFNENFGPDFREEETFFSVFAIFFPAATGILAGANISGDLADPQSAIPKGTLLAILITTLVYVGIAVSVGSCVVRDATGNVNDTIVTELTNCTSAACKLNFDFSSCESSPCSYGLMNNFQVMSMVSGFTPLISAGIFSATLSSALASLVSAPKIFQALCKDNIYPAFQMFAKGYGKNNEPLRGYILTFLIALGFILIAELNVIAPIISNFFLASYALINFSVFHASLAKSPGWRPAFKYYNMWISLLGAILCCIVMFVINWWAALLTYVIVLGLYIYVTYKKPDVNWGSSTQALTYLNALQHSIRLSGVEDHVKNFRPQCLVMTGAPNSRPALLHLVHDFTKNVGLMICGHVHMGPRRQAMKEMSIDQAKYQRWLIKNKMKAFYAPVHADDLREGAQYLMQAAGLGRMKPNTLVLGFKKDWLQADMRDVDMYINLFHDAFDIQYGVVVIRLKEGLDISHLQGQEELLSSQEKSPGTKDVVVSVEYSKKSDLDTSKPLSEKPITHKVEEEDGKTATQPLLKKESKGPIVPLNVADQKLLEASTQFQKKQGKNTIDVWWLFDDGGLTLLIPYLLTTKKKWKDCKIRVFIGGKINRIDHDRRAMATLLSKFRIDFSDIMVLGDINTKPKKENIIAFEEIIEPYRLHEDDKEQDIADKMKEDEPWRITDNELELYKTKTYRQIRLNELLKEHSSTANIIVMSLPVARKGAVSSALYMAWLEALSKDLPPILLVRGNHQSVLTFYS

IC50 [2]: 5.82 µM
IC50 ([3]; 86Rb+ uptake, Xenopus oocytes, 5 min, corrected for uninjected oocytes, median and range of 3–7 experiments): 5.15 µM
Ratio hNKCC1A/ hNKCC1B ([3]; ratio of IC50s): 0.885
SMILES: NS(=O)(=O)c1cc(C(=O)O)c(NCc2ccco2)cc1Cl [Furosemide]
IC50 [1]: 10.6 µM
